Data as given in PubChem BioAssay AID686943 (Drosophila RNAi Screening Center, 2013)
The deposit covers about 23,000 reagents; this is a random part of those with a known target gene and a result. 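Extra replicates exist only for a retested subset of genes; insulin dose and duration not given; both raised and lowered dpERK matter.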 The record does not give: the amount of reagent, the time to read-out.

Screen: 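Knockdowns that increase or decrease active ERK after insulin receptor stimulation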 (primary screen)
System: Drosophila S2R+ haemocyte-like cells expressing YFP-tagged ERK (Rolled)
Reagent: long dsRNA against Drosophila genes
Challenge: insulin stimulation versus unstimulated cells; dose and duration not given
Measurement: 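Per-plate z-scores of phospho-ERK immunostaining normalised to YFP-tagged ERK, measured with and without insulin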
Scale: replicate 1, z-score of dpERK with insulin and replicate 2, z-score of dpERK with insulin: higher = more active ERK per ERK-YFP after insulin; replicate 1, z-score of dpERK under basal conditions: higher = more basal active ERK per ERK-YFP; replicate 1, z-score of ERK-YFP with insulin: higher = more YFP-tagged ERK signal

no.	target	PubChem SID	replicate 1, z-score of dpERK with insulin	replicate 2, z-score of dpERK with insulin	replicate 1, z-score of dpERK under basal conditions	replicate 1, z-score of ERK-YFP with insulin
1	COX5A	SID104196403	-1.17	-2.22	-1	4.5
2	plx	SID104192052	0.57	0.64	-0.62	-0.17
3	plx	SID104192177	-0.1	-0.35	-0.29	0.19
4	plx	SID104202075	-2.85	-0.81	0.49	-0.12
5	CG8229	SID104186906	0.23	0.11	0.38	-0.65
6	mub	SID104191688	-0.38	-0.12	0.22	0.5
7	CR12842	SID104185980	-0.44	-0.91	-0.25	0.61
8	CG3558	SID104180407	0.6	0.27	-0.13	0.46
9	BckdhB	SID104200975	0.28	0.49	0.63	-0.37
10	CG30480	SID104186528	0.34	0.34	0.8	-0.41
11	kek4	SID104183012	-0.62	-0.43	-0.12	0.86
12	CG33296	SID104180790	-0.46	-0.18	-0.21	0.54
13	CG9581	SID104200487	0.21	-0.65	2	-0.08
14	CG9581	SID104201773	-0.32	0.33	0.31	0.77
15	in	SID104191680	-0.68	0.48	0.56	0.21
16	CG42346	SID104200414	2.31	0.72	0.38	-0.11
17	CG42346	SID104200436	0.12	-0.09	0.51	-0.21
18	Sry-beta	SID104196660	0.2	-0.24	-0.29	-0.66
19	Ccp84Ad	SID104192381	1.44	1.25	-0.35	-1.42
20	Ccp84Ad	SID104202213	0.28	1.09	-0.37	-0.62
21	CG14969	SID104188220	0.44	-1.06	-0.94	0.72
22	CG10472	SID104189522	1.34	-0.21	0.31	-0.27
23	COX2 (retired record)	SID104201068	0.05	0.02	0.67	0.19
24	CG2120	SID104197999	0.03	0.26	1.16	0.27
25	sxe2	SID104195484	-0.4	-0.67	-0.23	-0.51
26	CG10748	SID104189589	0.4	-0.05	0.63	0.1
27	Gfat1	SID104201011	-0.22	0.4	0.78	0.74
28	Vap33	SID104198176	0.26	0.71	-0.33	-0.59
29	PI31	SID104187098	0.06	-0.58	0.48	0.75
30	Sf3b2	SID104180411	1.5	1.36	-0.27	-1.23
31	CG15754	SID104199511	1.23	0.86	0.73	-1.17
32	Gr22c	SID104201654	0.15	-0.36	0.8	-0.29
33	CG4230	SID104182532	-0.56	-0.09	-0.1	0.25
34	CG6650	SID104190477	0.76	0.29	1.73	0.19
35	osy	SID104194695	-0.43	-0.11	-0.66	0.32
36	osy	SID104195771	0.48	-0.04	1.26	0.29
37	osy	SID104195773	0.21	-0.61	0.5	-0.2
38	Tengl2	SID104201578	-0.3	1.29	-0.27	0.08
39	srw	SID104187993	-0.24	-0.26	-0.28	-0.35

6 consecutive records from above, for reference:
no.	target	PubChem SID	replicate 1, z-score of dpERK with insulin	replicate 2, z-score of dpERK with insulin	replicate 1, z-score of dpERK under basal conditions	replicate 1, z-score of ERK-YFP with insulin
10	CG30480	SID104186528	0.34	0.34	0.8	-0.41
11	kek4	SID104183012	-0.62	-0.43	-0.12	0.86
12	CG33296	SID104180790	-0.46	-0.18	-0.21	0.54
13	CG9581	SID104200487	0.21	-0.65	2	-0.08
14	CG9581	SID104201773	-0.32	0.33	0.31	0.77
15	in	SID104191680	-0.68	0.48	0.56	0.21
